At least one compound was matched to its structure with a doubt left.
Tested on: four species of bacteria (B. subtilis, E. coli, S. aureus, L. lactis)
Test: Evaluation of inhibitory effect on bacterial division (flow cytometry)
Assay type: cell-based
Conditions: 8 μg/mL, 2 h of treatment, compared to blank control; FIG. 7
Experimental: • 1. Culture of bacterial strains. After the four bacterial strains were activated on a nutrient agar plate, a single colony was picked, inoculated to TSB medium (10 g/L peptone, 3 g/L beef extract powder, and 5 g/L sodium chloride), incubated at 37° C. for 6 h to the mid-logarithmic stage, and then centrifuged at 8000 rpm for 5 min to collect the bacterial cells. The collected bacterial cells were suspended in fresh TSB medium at a bacterial suspension concentration of approximately 10^7 cells/mL. • 2. Antibiotics. […] Bacterial growth was analyzed using a microplate reader, and the smallest concentration of antibiotics that could inhibit the growth of bacteria was defined as the minimum inhibitory concentration. • 4. […] After centrifugation at 8000 rpm, the bacterial cells were collected and resuspended in the PBS buffer, and the changes in the number of bacteria in the sample were analyzed using the forward scatter signals on the flow cytometer. • 5. […] The above labeling system was left at room temperature for 30 min in the dark, washed and centrifuged with PBS twice, and the percentages of viable and dead bacteria were analyzed using a flow cytometer. […]

COc1c(N2C[C@@H]3CCCN[C@@H]3C2)c(F)cc2c(=O)c(C(=O)O)cn(C3CC3)c12 [Moxifloxacin, moxifloxacin]
Inhibition of cell division of the four species of bacteria: efficient inhibition of cell division
